No constants are given. Whether binding was seen depends on the method and setting. In cells and extracts the contact can be indirect. Some binding calls cover weakened binding; strength is not graded here. For part of these data: Tags and fused reporters may be left off the sequences shown.
T1: Flag-tagged human EFHD2 (EF-hand domain-containing protein D2) (human) (UniProt Q96C19)
T1 sequence: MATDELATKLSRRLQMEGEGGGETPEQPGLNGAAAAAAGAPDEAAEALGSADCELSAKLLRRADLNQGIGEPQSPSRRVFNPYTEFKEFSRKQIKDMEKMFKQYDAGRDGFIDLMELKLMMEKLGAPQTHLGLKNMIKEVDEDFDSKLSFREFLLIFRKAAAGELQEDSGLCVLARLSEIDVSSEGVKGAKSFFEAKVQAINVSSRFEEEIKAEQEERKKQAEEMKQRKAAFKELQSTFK

Chains of the proteins cited; added tags and fusions are not shown.
UniProt Q13546: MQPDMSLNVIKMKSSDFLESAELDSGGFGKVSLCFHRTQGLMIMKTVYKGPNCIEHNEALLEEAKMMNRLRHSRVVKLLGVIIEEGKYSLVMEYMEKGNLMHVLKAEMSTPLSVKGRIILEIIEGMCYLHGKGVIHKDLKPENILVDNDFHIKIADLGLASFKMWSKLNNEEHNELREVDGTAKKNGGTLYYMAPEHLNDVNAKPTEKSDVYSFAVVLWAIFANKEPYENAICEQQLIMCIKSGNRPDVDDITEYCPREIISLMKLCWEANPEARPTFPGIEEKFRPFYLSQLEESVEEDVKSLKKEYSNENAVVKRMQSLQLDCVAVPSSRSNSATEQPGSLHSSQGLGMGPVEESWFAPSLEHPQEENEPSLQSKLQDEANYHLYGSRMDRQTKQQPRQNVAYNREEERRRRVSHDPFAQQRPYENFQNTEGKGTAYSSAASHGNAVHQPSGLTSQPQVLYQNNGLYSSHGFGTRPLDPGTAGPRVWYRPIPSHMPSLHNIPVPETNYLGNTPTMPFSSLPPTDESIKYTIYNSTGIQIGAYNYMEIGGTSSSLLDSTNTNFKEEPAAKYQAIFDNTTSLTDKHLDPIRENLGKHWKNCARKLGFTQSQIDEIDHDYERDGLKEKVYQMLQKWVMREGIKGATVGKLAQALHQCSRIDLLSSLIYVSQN


Assays:
[1] = biological target: T1, Flag-tagged human EFHD2 (EF-hand domain-containing protein D2) (human); experiment: co-IP; lysates of HCT-116 cells overexpressing Flag-EFHD2, treated with 50 ng/ml TNF for the indicated time, immunoprecipitated with anti-FLAG M2 magnetic beads, western blot
[2] = biological target: endogenous RIPK1 (human (endogenous in HCT-116)) (UniProt Q13546); experiment: co-IP; lysates of HCT-116 cells treated with TNF for the indicated time, immunoprecipitated with anti-RIPK1 (CST #3493), western blot for endogenous EFHD2

Row | binding [1] | binding [2] | Molecule
1 | binds | – | endogenous RIPK1 (from UniProt Q13546 1-671)
2 | binds | – | TRADD (protein, UniProt Q15628 1-312) MAAGQNGHEEWVGSAYLFVESSLDKVVLSDAYAHPQQKVAVYRALQAALAESGGSPDVLQMLKIHRSDPQLIVQLRFCGRQPCGRFLRAYREGALRAALQRSLAAALAQHSVPLQLELRAGAERLDALLADEERCLSCILAQQPDRLRDEELAELEDALRNLKCGSGARGGDGEVASAPLQPPVPSLSEVKPPPPPPPAQTFLFQGQPVVNRPLSLKDQQTFARSVGLKWRKVGRSLQRGCRALRDPALDSLAYEYEREGLYEQAFQLLRRFVQAEGRRATLQRLVEALEENELTSLAEDLLGLTDPNGGLA
3 | – | binds | endogenous EFHD2 (protein, UniProt Q96C19 1-240) MATDELATKLSRRLQMEGEGGGETPEQPGLNGAAAAAAGAPDEAAEALGSADCELSAKLLRRADLNQGIGEPQSPSRRVFNPYTEFKEFSRKQIKDMEKMFKQYDAGRDGFIDLMELKLMMEKLGAPQTHLGLKNMIKEVDEDFDSKLSFREFLLIFRKAAAGELQEDSGLCVLARLSEIDVSSEGVKGAKSFFEAKVQAINVSSRFEEEIKAEQEERKKQAEEMKQRKAAFKELQSTFK
